The list shows a part of the results. Further columns of the screen follow, without active or inactive calls. Compounds called inactive in the main read-out are mostly missing here. Potencies come from curve fits of mixed quality, noted in brackets.
Assay: qHTS Assay for Modulators of Lamin A Splicing
Conditions: HeLa LMNA splicing GFP/RFP minigene ratio, 48 h
Summary of the method: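 Read-out is the ratio of GFP to DsRed2 object intensity, acquired by 488 nm laser-scanning cytometry on HeLa lamin A-EGFP minigene reporter cells. Compound incubation 48 hrs at 37 °C in Opti-MEM with 2% FBS; DMSO 0.5% final.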

[1] = measured here: RFP viability control channel
[2] = measured here: GFP splicing reporter channel

Cc1ccc(-n2c(C)cc(/C([O-])=C(/C(=S)Nc3ccc(F)c(Cl)c3)[n+]3ccccc3)c2C)cc1
AC50 [1]: 15.8 µM [rising, single point]

Cc1cccc2cc(C3CC(c4ccco4)=NN3C(=O)CCC(=O)O)c(Cl)nc12 (centres undefined)
AC50 [2]: 22.4 µM [falling, single point]
AC50 [1]: 35.5 µM [falling, single point]

Nc1nc(SCC(=O)Nc2ccc([N+](=O)[O-])cc2Br)n[nH]1
AC50 [1]: 17.8 µM [rising, single point]

CNC(=O)c1sc(N2N=C3/C(=C/c4ccccc4)CCCC3C2c2ccccc2)nc1C (centres undefined)
AC50 [2]: 8.91 µM [falling, partial curve]
AC50 [1]: 20 µM [falling, partial curve, poor fit]

Cc1cccc(-c2nc3scc(CCNC(=O)c4ccccc4Cl)n3n2)c1
AC50 [2]: 14.1 µM [falling, single point]

COc1ccc(NC(=S)Nc2cccc(S(=O)(=O)N3CCCCC3)c2)cc1
AC50 [2]: 11.2 µM [rising, single point]
AC50 [1]: 35.5 µM [rising, single point]

COc1ccc(Cl)cc1N1CC(C(=O)Nc2nccs2)CC1=O (centres undefined)
AC50 [2]: 10 µM [falling, partial curve, poor fit]

CC(=O)/C(=N\Nc1ccc(Cl)cc1Cl)Sc1cccc2cccnc12
AC50 [1]: 35.5 µM [rising, single point]

CCN(CC)C(=O)CSc1nc2ccccc2c(=O)n1CC1CCCCC1
AC50 [1]: 35.5 µM [rising, single point]

O=C(CSc1ccccc1)Nc1ccc(S(=O)(=O)Nc2ncccn2)cc1
AC50 [2]: 0.0631 µM [falling, full curve, poor fit]

O=S(=O)(c1ccc(Cl)cc1)N1CCN(C(=S)Nc2ccc(F)c(Cl)c2)CC1
AC50 [1]: 10 µM [rising, partial curve]

COc1ccnc(-n2cccc2C=O)c1C#N
AC50 [2]: 3.98 µM [rising, single point]

O=C(COc1ccc(F)cc1)Nc1ccc2nc(SCc3ccccc3)sc2c1
AC50 [2]: 12.6 µM [falling, single point]
AC50 [1]: 25.1 µM [falling, single point]

COc1ccc(Cc2nnc(N/N=C/c3ccc(O)cc3O)[nH]c2=O)cc1OC
AC50 [1]: 35.5 µM [rising, partial curve, poor fit]

O=c1c2ccccc2c(-c2ccccc2)nn1Cc1ccc(Cl)cc1
AC50 [1]: 11.2 µM [falling, partial curve]

CCN(CC)C(=O)CSc1ncnc2c(-c3ccc(OC)cc3)nsc12
AC50 [2]: 0.0316 µM [falling, full curve, poor fit]

N#CCSc1nnc(C2CCCCC2)n1Cc1ccccc1
AC50 [2]: 22.4 µM [rising, single point]

O=C1C=CC(=O)N1c1ccc(N2CCCCC2)cc1
AC50 [2]: 8.91 µM [falling, partial curve]
AC50 [1]: 7.08 µM [falling, partial curve, poor fit]

CCC(C)NC(=O)Cn1cc(S(=O)(=O)N2CCN(c3ccccc3F)CC2)c2ccccc2c1=O (centres undefined)
AC50 [2]: 14.1 µM [falling, single point]

COC(=O)c1cc(OC)c(OC)cc1NCC(=O)Nc1ccc(C)cc1
AC50 [1]: 11.2 µM [rising, partial curve, poor fit]

O=[N+]1C2=C(CCCC2)N([O-])C12CCCC2
AC50 [1]: 0.0158 µM [falling, full curve, poor fit]

CCOC(=O)N1CCN(C(=S)Nc2ccc(C)c(C)c2)CC1
AC50 [1]: 14.1 µM [rising, single point]

Cc1cc(NC(=O)C2CCCCC2)n(-c2nc3ccccc3[nH]2)n1
AC50 [1]: 35.5 µM [rising, single point]

Cc1ccc(Nc2nc(N/N=C/c3c[nH]c4ccccc34)nc(N3CCOCC3)n2)cc1
AC50 [1]: 2.82 µM [rising, partial curve]

O=C(N/N=C/c1ccc[nH]1)c1ccccc1OCc1ccccc1Cl
AC50 [1]: 15.8 µM [rising, partial curve, poor fit]

CN(Cc1ccco1)c1ncnc2ccc(-c3ccc4c(c3)OCO4)cc12
AC50 [2]: 4.47 µM [rising, partial curve]
AC50 [1]: 35.5 µM [falling, single point]

Cc1cccc(CNc2ncncc2-c2ccccc2C(F)(F)F)c1
AC50 [1]: 20 µM [rising, single point]

CCCCNC(=O)c1c[nH]c2ccc(S(=O)(=O)Nc3ccc(OCC)cc3)cc2c1=O
AC50 [2]: 35.5 µM [falling, partial curve, poor fit]
AC50 [1]: 20 µM [falling, partial curve, poor fit]

CCOC(=O)/C=C/C(=O)OCC(=O)NC(c1ccccc1)c1ccccc1
AC50 [2]: 35.5 µM [falling, single point]

O=C(Nc1cccc2c1CCCC2)c1ccc(Cl)c([N+](=O)[O-])c1
AC50 [1]: 5.01 µM [rising, full curve, poor fit]

Cc1noc(C)c1S(=O)(=O)N1CCCC(C(=O)NCCC2=CCCCC2)C1 (centres undefined)
AC50 [2]: 12.6 µM [rising, single point]

O=C(CSc1nnc(-c2ccncc2)n1Cc1ccco1)Nc1nc(-c2ccccc2)cs1
AC50 [1]: 31.6 µM [rising, single point]

COc1cccc(NC(=S)N(CCN(C)C)C(C)c2ccco2)c1 (centres undefined)
AC50 [1]: 22.4 µM [rising, single point]

CCNc1nc(NC(C)C)nc(Oc2ccc(OCCOc3ccc(C)cc3)nn2)n1
AC50 [2]: 11.2 µM [rising, single point]
AC50 [1]: 14.1 µM [rising, single point]

COc1ccc([N+](=O)[O-])cc1NC(=O)CSc1nc(C)cc(C)n1
AC50 [1]: 17.8 µM [rising, single point]

Cc1ccc2sc(NNC(=O)C3COc4ccccc4O3)nc2c1C (centres undefined)
AC50 [1]: 12.6 µM [rising, partial curve]

CN(C)c1ccc(NC(=O)Cn2c(SCc3ccccc3F)nc3cccnc32)cc1
AC50 [2]: 31.6 µM [rising, partial curve]
AC50 [1]: 22.4 µM [rising, partial curve]

O=C(Nc1ccon1)c1csc2ccccc12
AC50 [1]: 11.2 µM [rising, single point]

Cc1cc(N2CCN(C(c3ccccc3)c3ccc(Cl)cc3)CC2)n2ncnc2n1 (centres undefined)
AC50 [1]: 17.8 µM [rising, single point]

N=c1n(CCc2ccccc2)c2ccccc2n1Cc1ccccc1F
AC50 [2]: 35.5 µM [rising, single point]
AC50 [1]: 31.6 µM [rising, single point]

COc1ccc(-c2nnc(SCC(=O)Nc3ccc(F)cc3)s2)cc1
AC50 [2]: 15.8 µM [rising, single point]

C[C@H]([C@@H](N)C(=O)N[C@@H](C(=O)O)[C@@H]1O[C@H](n2ccc(=O)[nH]c2=O)[C@@H](O)[C@H]1O)[C@@H](O)c1ccc(O)cn1
AC50 [1]: 0.0398 µM [falling, full curve]

CSc1sc(C(=O)NC(=O)NCc2ccncc2)c(C)c1-c1ccon1
AC50 [2]: 11.2 µM [falling, partial curve, poor fit]
AC50 [1]: 10 µM [falling, partial curve, poor fit]

O=C(/C=C/c1ccc(OCc2ccccc2)c(OCc2ccccc2)c1)c1cccnc1
AC50 [1]: 7.94 µM [rising, partial curve, poor fit]

COc1ccc(NC(=O)CSc2nncc3ccccc23)cc1
AC50 [1]: 0.0316 µM [rising, full curve]

COc1ccc(-c2csc(NC(=S)NC(=O)c3cccs3)n2)cc1Br
AC50 [2]: 3.16 µM [falling, partial curve, poor fit]
AC50 [1]: 2.82 µM [falling, full curve]

CCCNC(=O)Cc1c(OC)ccc2cc(Br)ccc12
AC50 [2]: 5.62 µM [rising, single point]
AC50 [1]: 11.2 µM [rising, partial curve]

Cc1ccccc1OCCNc1cc(N2CCNCC2)ccc1[N+](=O)[O-]
AC50 [1]: 35.5 µM [falling, single point]

Cc1ccc(OCc2nnc(SCC(=O)C(C)(C)C)n2Cc2ccco2)cc1
AC50 [2]: 25.1 µM [rising, single point]
AC50 [1]: 17.8 µM [rising, single point]

CCc1nc2ccccc2c(C(=O)OCC(=O)NCc2ccc3c(c2)OCO3)c1C
AC50 [2]: 11.2 µM [rising, partial curve]
AC50 [1]: 20 µM [rising, partial curve]

CCn1c(/C=C/N(C(C)=O)c2ccccc2)[n+](CCCS(=O)(=O)[O-])c2cc(Cl)c(Cl)cc21
AC50 [1]: 10 µM [falling, partial curve]

CCc1ccccc1NC(=O)COc1cccc2ccc(C)nc12
AC50 [2]: 15.8 µM [rising, partial curve, poor fit]
AC50 [1]: 11.2 µM [rising, partial curve]

Cc1ccc(NP(=O)(Nc2ccc(C)cc2)Nc2ccc(C)cc2)cc1
AC50 [2]: 22.4 µM [falling, single point]
AC50 [1]: 35.5 µM [falling, single point]

Cc1cccc(NS(=O)(=O)c2cc(OCC(N)=O)c(C)cc2Cl)c1
AC50 [1]: 15.8 µM [rising, single point]

COC(=O)c1ccc(Oc2cc(C)nc(-n3nc(C)cc3C)n2)cc1
AC50 [1]: 0.355 µM [falling, full curve, poor fit]

COc1cc(OC)c(-c2c3cc(O)c(=O)cc-3oc3cc(O)c(O)cc23)cc1OC
AC50 [2]: 12.6 µM [falling, partial curve]
AC50 [1]: 25.1 µM [falling, single point]

Reference: PubChem BioAssay AID1487 (National Center for Advancing Translational Sciences (NCATS), 2009)
